Source: patent US5200309A, “Color photographic materials including magenta coupler, carbonamide compound and aniline or amine compound, and methods” (Eastman Kodak Company, priority 1991, dated 1993)

Experiment: Continued coupling: difference in Dmin without stop bath versus with stop bath (C-41 process variants)
Conditions: for Delta Dmin Process A-C: bleach pH 5.25; for Delta Dmin Process B-C: bleach pH 6.0; for reduction of delta Dmin relative to comparative films containing S1 alone: process B, C5 in combination with A1
Experimental: Dispersions of couplers Ml and M2 were prepared (a) in comparative coupler solvents S1 and S2, (b) in a carbonamide coupler solvent of this invention, C1, and (c) in a 0.8:0.2 mixture of S1 and aniline compound A1. The weight ratio of coupler:solvent or coupler:solvent and aniline was 1:1. Dispersions were prepared by dissolving the coupler in a 1:3 mixture of coupler solvent plus cyclohexanone used as an auxiliary solvent, and aniline, if present. The mixtures were then added to an aqueous solution of gelatin and ALKANOL XC surfactant. The two-phase mixtures were passed through a colloid mill to disperse the coupler-containing oil phase in the aqueous phase in the form of small particles. The dispersion was then chilled, noodled and washed to remove the auxiliary cyclohexanone solvent. The resulting dispersions contained approximately 2% by weight of coupler and 6% by weight of gelatin.
The dispersions were coated on a transparent support at a coupler laydown of 0.54 mmole/m^2 together with a silver bromoiodide emulsion at a silver laydown of 1.08 g/m^2 in the following format:
The BVSME hardner is of the formula (CH2 =CH SO2 CH2--2 O. Coatings were then exposed and subjected to variants of the KODAK FLEXICOLOR (C-41) process described below. The C-41 process is described in British Journal of Photography Annual, 1988, pp. 196-198, discussed above. A first set of films was subjected to the standard C-41 process with no stop bath between the development and bleach steps (process A). A second set of films was also processed without a stop bath but with the FLEXICOLOR bleach pH adjusted to 6.0 instead of the normal 5.25 (process B). This was intended to simulate behavior in a "seasoned" bleach with increased pH due to carry-over of base from the developer solution. A third set of films was processed with an acetic acid stop bath between the development and bleach steps to eliminate any continued coupling (process C).
The differences in Dmin values resulting from process A and process C or process B and process C are measures of the continued coupling at bleach pH values of 5.25 and 6.0, respectively. Photographic gamma values, which serve as a measure of coupler activity, were obtained from plots of status M green density versus exposure for the various film samples subjected to process A. These gamma values are also listed in Table II.
Dispersions of pyrazolone magenta dye-forming couplers M3 and M4 were prepared in combination with coupler solvents S1 and C5, with and without aniline compound A1 by procedures similar to those of Example 2. The coupler:coupler solvent weight ratio was 1:1 for the dispersions without A1, and the dispersions with A1 were prepared at a 1:0.8:0.2 coupler:coupler solvent:A1 weight ratio. A dispersion of M4, C5 and amine compound All at M4:C5:All weight ratios of 1.0:0.85:0.15 was similarly prepared. These dispersions were coated on transparent supports at a coupler laydown of 0.54 mmole/m^2 together with a silver bromoiodide emulsion at a silver laydown of 1.08 g/m^2 as in Example 2. Hardened coatings were exposed and processed using procedures described in Example 2. The differences in Dmin values obtained with process A (Bleach pH=5.25, no stop bath) versus process C (Bleach pH=5.25, with stop bath) and with process B (Bleach pH= 6.0, no stop bath) versus process C are listed in Table III. Larger differences are indicative of higher undesirable continued coupling.

[1] = Table II, solvent S1(0.8), aniline A1(0.2)
[2] = Table II, solvent C1(1.0), no aniline
[3] = Table II, solvent S1(1.0), no aniline
[4] = Table II, solvent S2(1.0), no aniline
[5] = Table III, solvent C5(0.8), aniline A1(0.2)
[6] = Table III, solvent S1(0.8), aniline A1(0.2)
[7] = Table III, solvent C5(0.85), amine A11(0.15)

Compound	Delta Dmin Process A-C [1]	Delta Dmin Process B-C [1]	Delta Dmin Process A-C [2]	Delta Dmin Process B-C [2]	Delta Dmin Process A-C [3]	Delta Dmin Process B-C [3]	Delta Dmin Process A-C [4]	Delta Dmin Process B-C [4]	Delta Dmin Process A-C [5]	Delta Dmin Process B-C [5]	Delta Dmin Process A-C [6]	Delta Dmin Process B-C [6]	reduction of delta Dmin relative to comparative films containing S1 alone	Delta Dmin Process A-C [7]	Delta Dmin Process B-C [7]
CCCCCCCCCCCCNS(=O)(=O)c1ccc(NC2=NN(c3c(Cl)cc(Cl)cc3Cl)C(=O)C2Sc2cc(C(C)(C)CC(C)(C)C)ccc2OCCCC)c(Cl)c1 (stereo not shown) [Coupler M1]	0.03	0.09	–	–	–	–	–	–	–	–	–	–	–	–	–
CCCCCCCCCCCCNS(=O)(=O)c1ccc(NC2=NN(c3c(Cl)cc(Cl)cc3Cl)C(=O)C2Sc2ccc(C(C)(C)CC)cc2C(C)(C)CC)c(Cl)c1 (stereo not shown) [Coupler M2]	0.00	0.06	0.00	0.03	0.05	0.17	0.09	0.25	–	–	–	–	–	–	–
CCCCCCCCCCCCCC(=O)Nc1ccc(Cl)c(NC2=NN(c3c(Cl)cc(Cl)cc3Cl)C(=O)C2Sc2ccccc2NC(=O)C(CC)Oc2ccc(C(C)(C)CC)cc2C(C)(C)CC)c1 (stereo not shown) [Coupler M3]	–	–	–	–	–	–	–	–	0.02	0.05	0.03	0.09	five-fold	–	–
CCCCCCCCCCCCNS(=O)(=O)c1ccc(NC2=NN(c3c(Cl)cc(Cl)cc3Cl)C(=O)C2Sc2ccccc2NC(=O)C(CC)Oc2ccc(C(C)(C)CC)cc2C(C)(C)CC)c(Cl)c1 (stereo not shown) [Coupler M4]	–	–	–	–	–	–	–	–	0.05	0.12	0.17	0.33	four-fold	0.04	0.11
